Data on one molecule can be found in article PMC10641069, “Intra- and inter-molecular regulation by intrinsically-disordered regions governs PUF protein RNA binding” (Nature Communications, 2023).

The assay concerns the target T1, FBF-2 RBD + CT (FBF-2 residues 164-632) (C. elegans) (UniProt Q09312).
T1 sequence: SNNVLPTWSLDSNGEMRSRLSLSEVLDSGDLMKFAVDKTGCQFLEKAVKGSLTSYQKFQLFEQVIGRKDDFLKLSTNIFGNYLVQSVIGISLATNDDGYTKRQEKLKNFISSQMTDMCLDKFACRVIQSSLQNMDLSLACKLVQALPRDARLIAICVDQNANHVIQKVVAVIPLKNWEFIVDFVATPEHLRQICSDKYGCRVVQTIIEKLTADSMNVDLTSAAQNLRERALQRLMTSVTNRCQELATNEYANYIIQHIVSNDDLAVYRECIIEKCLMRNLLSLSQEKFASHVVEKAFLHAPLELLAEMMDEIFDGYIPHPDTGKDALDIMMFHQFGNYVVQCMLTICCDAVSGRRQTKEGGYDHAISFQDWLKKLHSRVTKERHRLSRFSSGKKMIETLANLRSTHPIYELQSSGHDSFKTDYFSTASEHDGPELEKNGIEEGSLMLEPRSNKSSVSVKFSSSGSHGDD
In words: condition: LST-1 100–400 µM in the syringe, FBF-2 10–30 µM in the cell; ITC; peptide (100–400 µM) titrated from the syringe into the cell containing FBF-2 (10–30 µM); 20 °C; 20 mM HEPES pH 7.4, 150 mM NaCl, 0.5 mM TCEP; no RNA; one-site model; mean of two replicates; both purified.

No constants are given. Whether binding was seen depends on the method and setting.

B1: LST-1 A peptide (LST-1 residues 19-50) (peptide, UniProt P91820 19-50, looked up)
chain: STIAYSKSQHEAPKQLLQLRSEIKPLIPLNQP
notes: The tag was cleaved with Ulp1 protease; also called LST-1^19–50; source: E. coli, purified (Ni-NTA, HiTrap Q flow-through, Superdex 75); not shown: His6-SUMO, N-terminal, cleaved
Turning to B1, the binding result is given as “no binding”.
